The other results are listed elsewhere or left out.
Legend:
Experiment in all cases: log2 fold change, soluble protein after heating vs DMSO (PISA); higher = thermal stabilisation; K562 lysate, 10 uM; active = over 0.2 and 3.5 SD of the protein, either way, in both replicates (recomputed)
erlotinib = compound: C#Cc1cccc(Nc2ncnc3cc(OCCOC)c(OCCOC)cc23)c1 [erlotinib]
How it was run: (§1)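 A 30 min treatment with 10 μM compound was applied to crude K562 extract at 1 mg/mL protein in PBS pH 7.4 with 1 mM MgCl2. Heating for 3 min spanned 48°C-58°C, after which aliquots were pooled, adjusted to 0.5% NP-40 at 4°C and spun at 21,000xg for 90 min. TMTpro 16plex LC-MS/MS of the supernatant, with channel sums equalised, gave values recorded as log-two fold change in thermal stability against solvent controls, from duplicates.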

Sequences of proteins named here, by UniProt entry; tags and fusion partners are left off. A change or cut given only in a name is not applied to a line headed by its entry.
UniProt Q9Y6E2: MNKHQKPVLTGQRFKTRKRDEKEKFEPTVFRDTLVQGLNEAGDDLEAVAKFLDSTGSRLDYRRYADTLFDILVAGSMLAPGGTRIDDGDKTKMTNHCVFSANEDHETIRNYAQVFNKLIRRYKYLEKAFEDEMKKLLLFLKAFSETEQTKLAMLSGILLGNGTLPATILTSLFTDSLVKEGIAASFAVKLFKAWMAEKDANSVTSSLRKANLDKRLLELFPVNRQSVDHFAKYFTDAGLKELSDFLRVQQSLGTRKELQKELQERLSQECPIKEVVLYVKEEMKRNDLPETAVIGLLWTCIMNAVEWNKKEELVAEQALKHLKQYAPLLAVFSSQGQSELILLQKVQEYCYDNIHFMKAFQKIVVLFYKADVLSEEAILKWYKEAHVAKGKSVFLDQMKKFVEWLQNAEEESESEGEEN
UniProt P05937: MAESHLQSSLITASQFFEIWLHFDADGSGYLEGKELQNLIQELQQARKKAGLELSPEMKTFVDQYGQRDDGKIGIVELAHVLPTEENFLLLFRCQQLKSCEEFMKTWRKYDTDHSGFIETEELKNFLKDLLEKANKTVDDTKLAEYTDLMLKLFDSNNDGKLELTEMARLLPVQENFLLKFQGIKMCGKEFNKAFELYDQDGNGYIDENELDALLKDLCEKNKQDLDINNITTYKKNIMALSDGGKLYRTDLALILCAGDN
UniProt Q8WUR7: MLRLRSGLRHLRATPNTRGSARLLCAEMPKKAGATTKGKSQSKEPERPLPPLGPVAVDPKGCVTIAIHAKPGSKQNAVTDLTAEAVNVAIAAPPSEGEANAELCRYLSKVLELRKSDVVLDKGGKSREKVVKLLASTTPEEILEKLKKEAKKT
UniProt O43709: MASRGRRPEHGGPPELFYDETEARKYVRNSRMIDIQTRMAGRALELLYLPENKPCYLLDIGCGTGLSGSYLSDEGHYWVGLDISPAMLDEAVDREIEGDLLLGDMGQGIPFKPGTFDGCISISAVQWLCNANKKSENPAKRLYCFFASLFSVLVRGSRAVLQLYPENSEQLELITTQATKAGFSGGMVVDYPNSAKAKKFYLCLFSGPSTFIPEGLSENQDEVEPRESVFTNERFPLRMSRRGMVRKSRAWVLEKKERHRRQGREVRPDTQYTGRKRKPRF
UniProt Q2NKX9: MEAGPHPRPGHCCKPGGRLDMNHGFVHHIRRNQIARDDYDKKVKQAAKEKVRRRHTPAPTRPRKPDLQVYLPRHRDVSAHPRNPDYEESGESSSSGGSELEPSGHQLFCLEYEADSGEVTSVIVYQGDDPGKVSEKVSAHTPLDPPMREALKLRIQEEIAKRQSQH
UniProt Q8TCD1: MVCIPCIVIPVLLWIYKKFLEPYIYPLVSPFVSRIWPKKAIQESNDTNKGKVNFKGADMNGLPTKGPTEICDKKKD
UniProt P01024, whole entry, looked up: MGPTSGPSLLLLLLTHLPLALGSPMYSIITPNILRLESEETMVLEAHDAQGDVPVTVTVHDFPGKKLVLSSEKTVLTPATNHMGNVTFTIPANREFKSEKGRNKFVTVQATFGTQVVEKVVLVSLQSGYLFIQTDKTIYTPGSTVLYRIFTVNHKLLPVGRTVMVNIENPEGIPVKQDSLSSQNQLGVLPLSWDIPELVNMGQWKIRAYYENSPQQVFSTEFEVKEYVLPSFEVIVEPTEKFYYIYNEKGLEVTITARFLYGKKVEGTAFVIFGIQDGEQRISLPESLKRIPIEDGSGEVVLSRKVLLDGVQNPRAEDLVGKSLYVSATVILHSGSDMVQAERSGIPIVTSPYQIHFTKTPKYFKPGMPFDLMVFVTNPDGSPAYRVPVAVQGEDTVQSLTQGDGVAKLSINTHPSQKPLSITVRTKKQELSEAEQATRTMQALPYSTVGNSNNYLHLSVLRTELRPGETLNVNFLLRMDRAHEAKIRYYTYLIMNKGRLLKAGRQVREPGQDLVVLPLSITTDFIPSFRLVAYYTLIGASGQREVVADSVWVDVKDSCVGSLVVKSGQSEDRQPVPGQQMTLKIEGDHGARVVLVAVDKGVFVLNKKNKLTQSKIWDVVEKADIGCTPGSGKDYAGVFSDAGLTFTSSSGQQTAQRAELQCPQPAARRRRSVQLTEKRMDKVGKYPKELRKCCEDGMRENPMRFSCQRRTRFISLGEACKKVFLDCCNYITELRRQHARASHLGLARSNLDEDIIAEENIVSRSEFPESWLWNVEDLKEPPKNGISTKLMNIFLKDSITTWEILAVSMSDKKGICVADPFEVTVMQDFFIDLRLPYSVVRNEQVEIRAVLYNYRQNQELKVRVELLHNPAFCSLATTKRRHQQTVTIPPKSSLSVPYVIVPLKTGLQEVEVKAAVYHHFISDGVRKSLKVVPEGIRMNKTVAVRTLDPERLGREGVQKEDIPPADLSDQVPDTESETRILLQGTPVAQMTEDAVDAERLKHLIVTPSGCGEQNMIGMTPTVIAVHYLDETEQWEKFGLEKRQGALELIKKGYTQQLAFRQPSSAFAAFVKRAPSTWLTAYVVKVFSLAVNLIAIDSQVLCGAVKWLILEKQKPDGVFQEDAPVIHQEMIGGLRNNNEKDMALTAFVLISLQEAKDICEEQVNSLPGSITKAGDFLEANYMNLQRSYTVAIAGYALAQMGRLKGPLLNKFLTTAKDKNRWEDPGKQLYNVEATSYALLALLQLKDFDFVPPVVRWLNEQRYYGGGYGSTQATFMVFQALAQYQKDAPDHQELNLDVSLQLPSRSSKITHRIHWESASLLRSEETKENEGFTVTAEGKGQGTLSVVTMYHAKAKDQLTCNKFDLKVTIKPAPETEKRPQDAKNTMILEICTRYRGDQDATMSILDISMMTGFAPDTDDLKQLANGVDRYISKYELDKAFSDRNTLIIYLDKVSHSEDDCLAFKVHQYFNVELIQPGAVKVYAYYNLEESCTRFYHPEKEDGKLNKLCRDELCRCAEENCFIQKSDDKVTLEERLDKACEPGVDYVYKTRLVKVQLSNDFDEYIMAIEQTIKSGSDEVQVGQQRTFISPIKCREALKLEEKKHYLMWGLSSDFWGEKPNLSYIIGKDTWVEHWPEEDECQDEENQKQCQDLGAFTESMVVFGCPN
UniProt Q9BVC5: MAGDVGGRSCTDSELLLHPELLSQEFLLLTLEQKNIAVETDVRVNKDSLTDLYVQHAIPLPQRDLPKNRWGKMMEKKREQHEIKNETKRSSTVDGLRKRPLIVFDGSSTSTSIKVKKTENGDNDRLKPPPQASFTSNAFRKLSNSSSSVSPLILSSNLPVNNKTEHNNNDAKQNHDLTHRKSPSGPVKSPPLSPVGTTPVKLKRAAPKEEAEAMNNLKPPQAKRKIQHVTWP
UniProt Q9Y6W3: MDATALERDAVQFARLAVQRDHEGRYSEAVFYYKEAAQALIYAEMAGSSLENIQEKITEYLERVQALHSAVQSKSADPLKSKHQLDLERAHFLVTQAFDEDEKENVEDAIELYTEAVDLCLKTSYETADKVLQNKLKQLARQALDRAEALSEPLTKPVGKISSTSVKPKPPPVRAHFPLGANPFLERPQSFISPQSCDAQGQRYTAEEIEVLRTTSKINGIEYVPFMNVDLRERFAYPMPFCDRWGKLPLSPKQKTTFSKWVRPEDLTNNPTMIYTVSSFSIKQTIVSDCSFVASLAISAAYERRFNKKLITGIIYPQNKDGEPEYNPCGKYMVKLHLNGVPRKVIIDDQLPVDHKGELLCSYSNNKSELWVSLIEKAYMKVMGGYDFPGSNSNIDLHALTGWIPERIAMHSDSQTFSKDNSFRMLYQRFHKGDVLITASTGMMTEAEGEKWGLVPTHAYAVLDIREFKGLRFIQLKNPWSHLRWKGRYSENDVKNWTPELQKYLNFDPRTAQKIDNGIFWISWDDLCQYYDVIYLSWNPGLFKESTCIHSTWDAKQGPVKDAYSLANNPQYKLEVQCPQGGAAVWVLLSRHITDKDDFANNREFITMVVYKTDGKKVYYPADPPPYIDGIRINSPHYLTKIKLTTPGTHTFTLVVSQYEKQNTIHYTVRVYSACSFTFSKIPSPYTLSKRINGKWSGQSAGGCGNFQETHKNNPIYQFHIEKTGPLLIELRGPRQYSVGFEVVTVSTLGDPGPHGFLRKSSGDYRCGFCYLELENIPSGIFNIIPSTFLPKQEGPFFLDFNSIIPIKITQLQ
UniProt Q9H3J6: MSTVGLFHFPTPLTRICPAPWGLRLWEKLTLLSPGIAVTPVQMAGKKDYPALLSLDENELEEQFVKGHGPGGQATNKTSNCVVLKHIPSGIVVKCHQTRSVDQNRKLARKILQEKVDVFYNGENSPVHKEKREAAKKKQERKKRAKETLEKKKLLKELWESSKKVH
UniProt Q6UWU4: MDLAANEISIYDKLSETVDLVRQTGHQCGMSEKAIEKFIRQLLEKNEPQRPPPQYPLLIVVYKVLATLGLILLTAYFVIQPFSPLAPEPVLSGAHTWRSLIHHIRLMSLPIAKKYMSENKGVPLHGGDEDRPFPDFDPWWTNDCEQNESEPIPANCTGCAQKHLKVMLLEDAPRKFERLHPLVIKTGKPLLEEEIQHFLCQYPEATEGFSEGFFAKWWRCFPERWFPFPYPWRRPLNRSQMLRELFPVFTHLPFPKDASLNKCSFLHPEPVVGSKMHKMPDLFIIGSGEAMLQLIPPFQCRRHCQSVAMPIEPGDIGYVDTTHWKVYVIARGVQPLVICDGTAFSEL
UniProt Q5JPI3: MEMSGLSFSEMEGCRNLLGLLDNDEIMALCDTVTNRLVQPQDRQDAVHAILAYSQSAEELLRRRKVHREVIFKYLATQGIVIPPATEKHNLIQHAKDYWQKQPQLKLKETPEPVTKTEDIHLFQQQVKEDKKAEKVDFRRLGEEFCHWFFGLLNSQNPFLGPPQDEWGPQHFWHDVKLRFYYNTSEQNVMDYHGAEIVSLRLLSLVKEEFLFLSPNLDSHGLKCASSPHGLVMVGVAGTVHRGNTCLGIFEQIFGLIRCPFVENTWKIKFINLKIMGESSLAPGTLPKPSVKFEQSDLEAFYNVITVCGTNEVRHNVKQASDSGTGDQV
UniProt Q8N1A6: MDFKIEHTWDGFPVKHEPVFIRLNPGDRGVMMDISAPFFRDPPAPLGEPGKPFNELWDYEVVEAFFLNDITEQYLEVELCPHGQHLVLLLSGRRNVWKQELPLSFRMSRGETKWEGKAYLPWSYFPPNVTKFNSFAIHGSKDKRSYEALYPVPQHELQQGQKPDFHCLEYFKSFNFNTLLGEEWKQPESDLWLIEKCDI
UniProt Q9HAS0: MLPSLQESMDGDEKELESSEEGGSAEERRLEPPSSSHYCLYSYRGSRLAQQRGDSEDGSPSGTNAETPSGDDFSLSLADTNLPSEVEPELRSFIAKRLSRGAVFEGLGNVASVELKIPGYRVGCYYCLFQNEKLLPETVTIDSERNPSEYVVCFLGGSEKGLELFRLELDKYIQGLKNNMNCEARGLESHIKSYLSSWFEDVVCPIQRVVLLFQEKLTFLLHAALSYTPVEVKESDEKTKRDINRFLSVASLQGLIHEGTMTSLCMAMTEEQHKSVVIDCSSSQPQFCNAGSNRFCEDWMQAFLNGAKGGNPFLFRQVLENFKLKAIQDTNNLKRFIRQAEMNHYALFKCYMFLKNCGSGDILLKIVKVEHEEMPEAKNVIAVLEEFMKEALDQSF
UniProt Q9BV19: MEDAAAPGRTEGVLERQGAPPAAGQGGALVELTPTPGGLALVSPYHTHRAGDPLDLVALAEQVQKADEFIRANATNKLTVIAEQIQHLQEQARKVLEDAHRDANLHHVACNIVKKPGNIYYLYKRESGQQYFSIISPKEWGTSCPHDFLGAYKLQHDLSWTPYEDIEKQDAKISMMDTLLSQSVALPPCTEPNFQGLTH
UniProt Q8N5I9: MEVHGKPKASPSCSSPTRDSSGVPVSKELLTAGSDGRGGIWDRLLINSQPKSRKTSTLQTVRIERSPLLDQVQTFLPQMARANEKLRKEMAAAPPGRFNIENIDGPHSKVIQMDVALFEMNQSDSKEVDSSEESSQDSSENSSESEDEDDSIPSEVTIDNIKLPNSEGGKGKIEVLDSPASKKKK
UniProt P00915: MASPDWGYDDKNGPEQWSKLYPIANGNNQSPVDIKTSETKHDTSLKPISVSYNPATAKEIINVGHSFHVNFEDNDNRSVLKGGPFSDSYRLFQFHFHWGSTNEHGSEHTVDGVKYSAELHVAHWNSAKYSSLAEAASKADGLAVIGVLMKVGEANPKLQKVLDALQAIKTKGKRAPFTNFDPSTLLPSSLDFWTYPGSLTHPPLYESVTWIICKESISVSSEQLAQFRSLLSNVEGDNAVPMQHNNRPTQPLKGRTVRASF
UniProt P27797, whole entry, looked up: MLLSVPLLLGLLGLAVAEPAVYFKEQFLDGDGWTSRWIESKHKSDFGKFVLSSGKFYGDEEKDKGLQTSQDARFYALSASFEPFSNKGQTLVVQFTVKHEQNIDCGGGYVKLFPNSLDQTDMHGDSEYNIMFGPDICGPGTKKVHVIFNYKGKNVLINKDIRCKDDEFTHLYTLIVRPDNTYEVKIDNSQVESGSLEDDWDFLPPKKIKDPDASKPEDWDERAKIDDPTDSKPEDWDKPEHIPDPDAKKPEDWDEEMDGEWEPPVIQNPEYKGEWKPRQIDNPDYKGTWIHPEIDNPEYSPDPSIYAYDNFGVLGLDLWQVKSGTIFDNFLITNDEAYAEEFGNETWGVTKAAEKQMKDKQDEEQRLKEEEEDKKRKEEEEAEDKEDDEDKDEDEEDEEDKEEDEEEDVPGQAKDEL

[1] = compound: C/C(=N\NC(=O)C1=CC(=CC=C1)S(=O)(=O)N2CCOCC2)/C3=C(C=CC(=C3)Cl)O
How it was run: as §1

[2] = compound: C1=CC(=CC=C1C2=NC3=C(N2)C=C(C=C3)C(=O)N)OC4=CC=C(C=C4)Cl
How it was run: as §1

[3] = compound: C1=CC2=C(C=CC(=C2)/C=C\3/C(=O)NC(=NCC4=CC=CS4)S3)N=C1
How it was run: as §1

[4] = compound: C1=CC2=NC=CN=C2C=C1/C=C/3\C(=O)NC(=O)S3
How it was run: as §1

[5] = compound: C1=CC=C(C=C1)C2=NC(=C(N2)C3=CC=NC=C3)C4=CC(=C(C=C4)Cl)O
How it was run: as §1

[6] = compound: C1=CC=C2C(=C1)C3=NNC4=CC=CC(=C43)C2=O
How it was run: as §1

[7] = compound: C1CCN(C1)C(=O)NC2=CC=CC(=C2)NC3=NC=C(C(=N3)NCCC4=CN=CN4)Br
How it was run: as §1

[8] = compound: C1CN(CCC1(CC2=CC=C(C=C2)Cl)N)C3=NC=NC4=C3C=CN4
How it was run: as §1

IRAK-1-4 Inhibitor I = compound: C1COCCN1CCN2C3=CC=CC=C3N=C2NC(=O)C4=CC(=CC=C4)[N+](=O)[O-] [IRAK-1-4 Inhibitor I]
How it was run: as §1

Measured: log2 fold change

CAPZA1 (UniProt P52907)
inactive: erlotinib -0.016 | [1] -0.009 | [2] 0.012 | [3] -0.004 | [4] 0.032 | [5] -0.001 | [6] -0.027 | [7] -0.016 | [8] 0.042 | IRAK-1-4 Inhibitor I 0.018

BZW2 (UniProt Q9Y6E2)
inactive: erlotinib -0.022 | [1] -0.011 | [2] -0.036 | [3] -0.011 | [4] 0.016 | [5] -0.023 | [6] -0.001 | [7] 0.021 | [8] -0.013 | IRAK-1-4 Inhibitor I -0.004

CALB1 (UniProt P05937)
inactive: erlotinib -0.012 | [1] -0.022 | [2] 0.015 | [3] -0.009 | [4] -0.06 | [5] 0.007 | [6] -0.011 | [7] 0 | [8] 0.013 | IRAK-1-4 Inhibitor I -0.012

C15orf40 (UniProt Q8WUR7)
inactive: erlotinib 0.004 | [1] 0.011 | [2] -0.044 | [3] -0.1 | [4] -0.032 | [5] 0.071 | [6] -0.017 | [7] -0.01 | [8] -0.006 | IRAK-1-4 Inhibitor I 0.003

C20orf27 isoform 2 (UniProt Q9GZN8)
inactive: erlotinib 0.095 | [1] -0.02 | [2] -0.091 | [3] -0.022 | [4] 0.013 | [5] -0.031 | [6] 0.075 | [7] 0.042 | [8] 0.019 | IRAK-1-4 Inhibitor I 0.052

C8orf76 (UniProt Q96K31)
inactive: erlotinib -0.015 | [1] -0.061 | [2] 0.033 | [3] 0.045 | [4] -0.057 | [5] 0.02 | [6] -0.034 | [7] 0.033 | [8] -0.025 | IRAK-1-4 Inhibitor I 0.026

CARD11 (UniProt Q9BXL7)
inactive: erlotinib -0.03 | [1] -0.051 | [2] 0.016 | [3] 0.061 | [4] -0.168 | [5] -0.048 | [6] -0.022 | [7] -0.042 | [8] 0.013 | IRAK-1-4 Inhibitor I -0.01

BUD23 isoform 3 (UniProt O43709)
inactive: erlotinib 0.074 | [1] -0.046 | [2] 0.009 | [3] -0.008 | [4] -0.097 | [5] -0.02 | [6] -0.01 | [7] -0.026 | [8] -0.033 | IRAK-1-4 Inhibitor I -0.017

C11orf54 (UniProt Q9H0W9)
inactive: erlotinib 0.031 | [1] -0.086 | [2] 0.063 | [3] 0.03 | [4] 0.025 | [5] -0.001 | [6] 0.014 | [7] 0.029 | [8] -0.023 | IRAK-1-4 Inhibitor I -0.005

CAPG (UniProt P40121)
inactive: erlotinib 0.016 | [1] -0.022 | [2] 0.008 | [3] -0.014 | [4] -0.021 | [5] -0.004 | [6] -0.011 | [7] -0.02 | [8] 0.01 | IRAK-1-4 Inhibitor I 0.027

C2orf68 (UniProt Q2NKX9)
inactive: erlotinib -0.031 | [1] -0.236 | [2] 0.064 | [3] -0.008 | [4] 0.081 | [5] 0.061 | [6] 0.051 | [7] -0.01 | [8] 0.005 | IRAK-1-4 Inhibitor I 0.04

C18orf32 (UniProt Q8TCD1)
inactive: erlotinib 0.089 | [1] 0.126 | [2] 0.009 | [3] -0.06 | [4] -0.026 | [5] 0.011 | [6] 0.003 | [7] -0.049 | [8] -0.032 | IRAK-1-4 Inhibitor I -0.026

C3 (UniProt P01024)
inactive: erlotinib 0.016 | [1] -0.031 | [2] 0 | [3] 0.004 | [4] -0.036 | [5] 0.151 | [6] -0.061 | [7] -0.042 | [8] 0.01 | IRAK-1-4 Inhibitor I -0.014

CAPZA2 (UniProt P47755)
inactive: erlotinib -0.009 | [1] 0.005 | [2] -0.013 | [3] -0.005 | [4] 0.01 | [5] -0.011 | [6] 0.015 | [7] 0.03 | [8] 0.014 | IRAK-1-4 Inhibitor I 0.006

C2orf49 (UniProt Q9BVC5)
inactive: erlotinib -0.001 | [1] 0.025 | [2] 0.019 | [3] 0.013 | [4] -0.025 | [5] 0.015 | [6] -0.028 | [7] -0.032 | [8] 0.035 | IRAK-1-4 Inhibitor I 0.019

CAPN7 (UniProt Q9Y6W3)
inactive: erlotinib -0.004 | [1] -0.088 | [2] 0.027 | [3] 0.003 | [4] -0.026 | [5] -0.124 | [6] -0.034 | [7] -0.042 | [8] 0.027 | IRAK-1-4 Inhibitor I 0.027

CAMLG (UniProt P49069)
inactive: erlotinib -0.002 | [1] 0.05 | [2] -0.013 | [3] 0.004 | [4] -0.001 | [5] 0.035 | [6] -0.033 | [7] 0.029 | [8] -0.028 | IRAK-1-4 Inhibitor I -0.025

C12orf65 (UniProt Q9H3J6)
inactive: erlotinib 0.051 | [1] 0.092 | [2] -0.046 | [3] 0.083 | [4] -0.009 | [5] 0.011 | [6] 0.031 | [7] 0.056 | [8] -0.074 | IRAK-1-4 Inhibitor I 0.006

Quoted from the entries so far (2 entries):
CAPZA2 (UniProt P47755)
inactive: erlotinib -0.009 | [1] 0.005 | [2] -0.013 | [3] -0.005 | [4] 0.01 | [5] -0.011 | [6] 0.015 | [7] 0.03 | [8] 0.014 | IRAK-1-4 Inhibitor I 0.006

C2orf49 (UniProt Q9BVC5)
inactive: erlotinib -0.001 | [1] 0.025 | [2] 0.019 | [3] 0.013 | [4] -0.025 | [5] 0.015 | [6] -0.028 | [7] -0.032 | [8] 0.035 | IRAK-1-4 Inhibitor I 0.019

(listing goes on)

CALU isoform 4 (UniProt O43852)
inactive: erlotinib -0.044 | [1] 0.048 | [2] -0.012 | [3] -0.029 | [4] 0.018 | [5] 0.045 | [6] -0.032 | [7] 0.04 | [8] -0.017 | IRAK-1-4 Inhibitor I 0.016

C6orf89 isoform 2 (UniProt Q6UWU4)
inactive: erlotinib -0.008 | [1] 0.041 | [2] 0.001 | [3] 0.015 | [4] -0.009 | [5] 0.043 | [6] -0.111 | [7] 0.022 | [8] 0.026 | IRAK-1-4 Inhibitor I -0.002

C3orf38 (UniProt Q5JPI3)
inactive: erlotinib -0.029 | [1] -0.018 | [2] 0.087 | [3] 0.006 | [4] 0.001 | [5] 0.02 | [6] -0.062 | [7] -0.038 | [8] 0.005 | IRAK-1-4 Inhibitor I -0.003

C4A (UniProt P0C0L4)
inactive: erlotinib -0.017 | [1] 0.024 | [2] 0.009 | [3] -0.094 | [4] -0.042 | [5] 0.034 | [6] 0.023 | [7] -0.051 | [8] 0.006 | IRAK-1-4 Inhibitor I 0.044

C4orf33 (UniProt Q8N1A6)
inactive: erlotinib -0.071 | [1] -0.033 | [2] 0.014 | [3] 0.116 | [4] -0.026 | [5] 0.001 | [6] -0.001 | [7] -0.014 | [8] 0.035 | IRAK-1-4 Inhibitor I 0.036

C17orf75 (UniProt Q9HAS0)
inactive: erlotinib -0.006 | [1] -0.028 | [2] 0.017 | [3] 0.028 | [4] 0.104 | [5] 0.001 | [6] 0.017 | [7] 0.002 | [8] -0.011 | IRAK-1-4 Inhibitor I -0.016

C1orf50 (UniProt Q9BV19)
inactive: erlotinib -0.067 | [1] -0.005 | [2] -0.047 | [3] -0.013 | [4] -0.007 | [5] -0.078 | [6] -0.022 | [7] 0.045 | [8] -0.016 | IRAK-1-4 Inhibitor I -0.003

C12orf45 (UniProt Q8N5I9)
inactive: erlotinib -0.038 | [1] -0.113 | [2] 0.027 | [3] 0.009 | [4] -0.037 | [5] 0.009 | [6] 0.009 | [7] -0.018 | [8] 0.009 | IRAK-1-4 Inhibitor I -0.002

C19orf53 (UniProt Q9UNZ5)
inactive: erlotinib -0.059 | [1] -0.072 | [2] -0.037 | [3] -0.037 | [4] -0.087 | [5] -0.034 | [6] 0.056 | [7] 0.022 | [8] 0.017 | IRAK-1-4 Inhibitor I -0.015

CA1 (UniProt P00915)
inactive: erlotinib -0.008 | [1] -0.046 | [2] 0.015 | [3] 0.018 | [4] 0.01 | [5] 0.009 | [6] -0.024 | [7] 0.009 | [8] 0.007 | IRAK-1-4 Inhibitor I 0

CALR (UniProt P27797)
inactive: erlotinib -0.005 | [1] -0.002 | [2] 0.013 | [3] -0.001 | [4] 0.006 | [5] 0 | [6] -0.006 | [7] 0.027 | [8] 0.002 | IRAK-1-4 Inhibitor I 0.003

From the supplement of paper PMC10849652
